The results in this text go back to PubChem BioAssay AID1347426 (Functional Genomics Laboratory (NCATS/FGL), 2020).

Hit rate of the full screen: of about 31,000 sequences, about 1,400 (4.5%) were called active.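 How the source made its calls: active means median seed-adjusted z-score above 1 or below -1; inactive means the rest.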 The list shows a part of the results.

The assay is described as follows: Novel Modifiers of Survival Motor Neuron (SMN) Protein: Gene Identification via Genome-wide siRNA Screen.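 Further: luminescence tracks full-length SMN protein made from the SMN2 reporter.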 The note with it: HEK293T SMN2-luciferase reporter, siRNA knockdown, 72 h; actives lie on both sides. The procedure, abridged: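 Steps: spot 1 pmol siRNA, add Lipofectamine RNAiMax in serum-free DMEM, seed HEK293T SMN2–luciferase reporter cells; incubate 72 h at 37 °C; add ONE-Glo; normalize luminescence to control siRNA, log10, MAD. Candidates: |MAD| > 1.0.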
Background: In a reporter assay the amount or activity of a reporter protein is the signal.
Turning to GGAUAAACCAGGAACUGAATT against KIF7, the median seed-adjusted z-score is inactive: 0.0274.

Consider GCAAGGUCUCCAUCCUAGATT against PRKAR1B, for which the median seed-adjusted z-score is inactive: -0.0406.

On to GCAACAGCUCAAAAACGAATT against UAP1, for which the median seed-adjusted z-score was inactive: 0.0411.

With UCAAAGUAUUGUCCAGACATT against MBOAT7, the median seed-adjusted z-score was inactive: 0.314.

For CGUGAUCCCAGUCAUCUUATT against HRH4, the median seed-adjusted z-score was inactive: 0.247.

As to GCCUCCGAAUGGUACCUGATT against HPD, the median seed-adjusted z-score is inactive: -0.126.

Regarding GAACCAAGUUGUAUUGUUATT against PLDN, the median seed-adjusted z-score is inactive: -0.164.

As for AGUCUUCAGCGAGACCCUUTT against SST, the median seed-adjusted z-score was inactive: -0.043.

On to CGUUAGAGCUGAUUUACGATT against EPRS, for which the median seed-adjusted z-score is inactive: -0.391.

Regarding CGGCGGUUCUAUACUCGUATT against PLAGL2, the median seed-adjusted z-score is inactive: 0.0744.

Regarding CAUCUGAUCUGAAAAGGCATT against ZFP161, the median seed-adjusted z-score is inactive: 0.154.

Consider GCAGGUAGCUCAUAUGUUUTT against WDR31, for which the median seed-adjusted z-score is inactive: 0.796.

Take CCCGAAAUGUCACUACUAATT against MRE11A: the median seed-adjusted z-score was inactive: 0.0507.

On to CAGUCCUCUUUGACAUUUATT against ANXA11, for which the median seed-adjusted z-score was inactive: 0.21.

In the case of GGUGUUUGCUGAACAUCGATT against PRCP, the median seed-adjusted z-score was inactive: -0.481.

As for GCCUAGAUCUCAGGAGUUATT against ABAT, the median seed-adjusted z-score was inactive: 0.0191.

With UGGUGGGAGUGAAAGCAGATT against EXOSC7, the median seed-adjusted z-score was inactive: 0.0148.

Regarding GGCUGGAUGUCUUGAUCAATT against RDH14, the median seed-adjusted z-score is inactive: 0.0287.

As to GAACGAUUGUGGACCCUAUTT against TMEM8, the median seed-adjusted z-score was inactive: -0.551.

For GUCUCAUCGUACUUCGGAATT against UTRN, the median seed-adjusted z-score was inactive: 0.909.

In the case of CCAGUGAGAUAGAAAGUGATT against BTN3A2, the median seed-adjusted z-score was inactive: 0.402.

In the case of GAUGGUUAUUGAUUCAGGATT against KPNA3, the median seed-adjusted z-score is inactive: 0.383.

Turning to CCAAGUUGAUUUGAGAACATT against HHIP, the median seed-adjusted z-score was inactive: 0.

In the case of CUAGUGAACUGAUAGACCATT against RASAL2, the median seed-adjusted z-score is inactive: 0.

For the sequence CCAAAUUCCGCUCUCAUGATT against SFRS9, the median seed-adjusted z-score is inactive: -0.144.

With GGAAUUGUGGGUGCAUUAATT against WASL, the median seed-adjusted z-score is inactive: 0.143.

As for CAGUCCUUGUUAACCAACATT against ZNF514, the median seed-adjusted z-score is inactive: 0.125.

On to AGUCAAUAUUGAGGCAAGATT against PCDHB13, for which the median seed-adjusted z-score is inactive: -0.293.

Consider GCGACGAACUGAGCUGUAATT against FKBP2, for which the median seed-adjusted z-score is inactive: -0.0466.

CAGCUAAUGUUGGAUUGUUTT against EPHA7: the median seed-adjusted z-score was inactive: -0.172.

As for GAUGCGCACUCAGUCCUUATT against MLLT4, the median seed-adjusted z-score is inactive: -0.0762.

Regarding ACACCAAGCGGGUCAUUCATT against MYH7B, the median seed-adjusted z-score was inactive: -0.0322.

Take AGACCUUUCCAUUCGCCUUTT against PITX3: the median seed-adjusted z-score was inactive: 0.

For UGGUAGCAUUAUUAUCCAATT against SMA4, the median seed-adjusted z-score is inactive: 0.291.

Regarding GGCCUAUGCUUACUCGGAUTT against ZNF509, the median seed-adjusted z-score is inactive: 0.

Take GGAUUUGUGAGAUAUGAGATT against PABPC5: the median seed-adjusted z-score is inactive: -0.428.

On to GAAUCUUGCUGACUAUACATT against PASK, for which the median seed-adjusted z-score is inactive: 0.

Consider CGUGUAGAGAGGAACAAGATT against PPEF1, for which the median seed-adjusted z-score is inactive: -0.58.

Take CCAUCGAUGAGAUCCAGAATT against DDB1: the median seed-adjusted z-score was inactive: 0.231.

For CUACCAACGUGACAGGUGATT against FBP1, the median seed-adjusted z-score is inactive: -0.221.

As to GGAAGAUGGAGACUAUCAATT against MIPEP, the median seed-adjusted z-score was inactive: -0.169.

GCCCGUCUAUGACAAGAAATT against RELB: the median seed-adjusted z-score was active: 1.16.

Consider CAAGAAUGAUGCCUACUUUTT against CA11, for which the median seed-adjusted z-score was inactive: -0.0741.

Consider GAUUGUCCUUUGCCUAAAATT against SLC16A9, for which the median seed-adjusted z-score is inactive: 0.125.

AGUACAGGAUGCAUUCUUATT against DMRT1: the median seed-adjusted z-score was inactive: 0.

For GAAGCUGACUAAUGCAUUATT against DTNA, the median seed-adjusted z-score was inactive: 0.

Take GAAGCAUCUCCAAAACGUATT against ERAP1: the median seed-adjusted z-score was inactive: -0.0666.

Consider CCUUUACAAAUAACGGAUATT against NHLRC2, for which the median seed-adjusted z-score was inactive: 0.548.

For the sequence GCAUCAUCGAGAACCGCAATT against SRL, the median seed-adjusted z-score was inactive: 0.148.

On to CAAUCGUCUGUACUAUGAATT against PHKA1, for which the median seed-adjusted z-score was inactive: 0.286.

As for CGGCUUACACCAACACGCATT against HOXB2, the median seed-adjusted z-score was inactive: 0.271.

Consider ACCCUGGAGUUGUCAGGGATT against CLDN9, for which the median seed-adjusted z-score was inactive: 0.398.

Regarding GAGUUGUUGUUAGAUCGAATT against HELLS, the median seed-adjusted z-score was inactive: 0.192.

In the case of GGUCGGAUCUUUGAGCUGATT against TNRC4, the median seed-adjusted z-score was inactive: 0.801.

In the case of GGACUUCAAACGCAAGUUUTT against ABHD4, the median seed-adjusted z-score is inactive: -0.054.

As to GCCUUAAAAAGCACCAAAATT against ZNF16, the median seed-adjusted z-score is inactive: 0.

For the sequence CCAUUGGACGGGUACUUCATT against MED12, the median seed-adjusted z-score is inactive: -0.896.

GCUCAUCUCCGGCAAAAUATT against PNPLA3: the median seed-adjusted z-score was inactive: -0.0642.

Turning to GGGCUUUUAUUGCGACCAATT against NCOA3, the median seed-adjusted z-score is inactive: -0.594.

For the sequence GGCAGAAUCUGUUUACGAATT against CADM1, the median seed-adjusted z-score is inactive: 0.419.

GGUUGUCAGUCUUUAGUAATT against ZNF208: the median seed-adjusted z-score was inactive: 0.265.

Regarding GAUGAGUGCUGCUUCCGGATT against IGF1, the median seed-adjusted z-score was inactive: 0.559.

As to GCACCAUCCUCACACCUCUTT against TWIST1, the median seed-adjusted z-score was inactive: -0.159.

Consider GGCUUCUCGUCGAGCACUATT against ESPN, for which the median seed-adjusted z-score is inactive: 0.

As to AGAAAUGGGUGGAGACAUUTT against CYP4A11, the median seed-adjusted z-score is inactive: -0.762.

In the case of GCUGGAUGGUAUUCGAAAATT against UQCRB, the median seed-adjusted z-score is inactive: 0.348.

For the sequence CAACAGCAAUUACACCGAUTT against TMPRSS13, the median seed-adjusted z-score was inactive: 0.0584.

As to AGGAUAUGCUGUCAAUGUATT against NSDHL, the median seed-adjusted z-score was inactive: 0.716.

Turning to GGAGAAGGAGUAUUGACUATT against PLEKHF2, the median seed-adjusted z-score was inactive: 0.0967.

As to GGUCAUUCAGUAUAACGAATT against ZFHX4, the median seed-adjusted z-score was inactive: 0.0868.

Consider CCGCAGCUGUCUUCACAAATT against ALDH2, for which the median seed-adjusted z-score was inactive: -0.216.

On to UGCUGUUGGUCUCAGCUGATT against TNFRSF10B, for which the median seed-adjusted z-score is inactive: 0.064.

With GCCGAGCAGUUACAAGACATT against EXOSC8, the median seed-adjusted z-score is inactive: 0.203.

On to GGCAAUUGAUCGACCAGGATT against THSD4, for which the median seed-adjusted z-score is inactive: 0.0657.

On to GGGUGUUUGGGAAUAAGAATT against COASY, for which the median seed-adjusted z-score was inactive: 0.

With GCACUUACAACGACAUAUUTT against ZNF644, the median seed-adjusted z-score is inactive: 0.389.

As for CCUGCUGAGUUCAAACAGATT against AP2A2, the median seed-adjusted z-score was inactive: 0.158.

Consider GAAGGAGGGUGACCUGAUATT against LMNA, for which the median seed-adjusted z-score is inactive: -0.409.

In the case of GAGGGACCAUAGUAGAUCATT against CPSF6, the median seed-adjusted z-score is active: -2.38.

Consider GAUACGUGGUUCUAGAUGATT against LAMA4, for which the median seed-adjusted z-score was inactive: 0.691.

Regarding GCAUCCUGACGGUUGAUGUTT against GALR2, the median seed-adjusted z-score was inactive: -0.0832.

Regarding CAUGUAAACUUGCUGUUUUTT against CKS1B, the median seed-adjusted z-score was inactive: 0.00314.

On to GGCUUAGGGUAUUUCUACATT against SLC37A1, for which the median seed-adjusted z-score was inactive: -0.102.

On to GGAGUUCGUCUGUCAGUAUTT against ZBTB38, for which the median seed-adjusted z-score is inactive: 0.448.

Take CCAGCUCUGUCACCGUUGUTT against PTPRCAP: the median seed-adjusted z-score is inactive: 0.372.

For the sequence GGCUUCAGCGUGUCCCAUATT against GUK1, the median seed-adjusted z-score was inactive: -0.339.

Turning to GAGCCACACUUUCAAGUAATT against CRIP1, the median seed-adjusted z-score was inactive: -0.622.

For CCAUGAGUGUUGAUCGAUATT against OPRM1, the median seed-adjusted z-score is inactive: -0.00476.

Take GCAUCGAUCCGGUUCAAGATT against TTLL9: the median seed-adjusted z-score is inactive: 0.0534.

Turning to GGAGUUGUCCAGUACCCAATT against AGXT2, the median seed-adjusted z-score is inactive: 0.17.

On to GGGUUUUCAUUCAGAUGAATT against MLL4, for which the median seed-adjusted z-score is inactive: -0.259.

On to GAGACAGCCUGAUGGAGAATT against STC1, for which the median seed-adjusted z-score was active: -1.36.

On to AGCCUAUGGUCGGAACGAATT against APOBEC3F, for which the median seed-adjusted z-score is inactive: -0.315.

Consider GGAACCGUCUUGUCAAUGATT against SLITRK2, for which the median seed-adjusted z-score is inactive: -0.246.

In the case of CCCUUUCACCCUGAAUAUATT against SERPINA9, the median seed-adjusted z-score was inactive: 0.497.

Regarding GCCUGUCCCUAGCAUUGUUTT against CES2, the median seed-adjusted z-score was inactive: -0.47.

For the sequence CCACACCAUUAUGACCAUUTT against FUT1, the median seed-adjusted z-score was inactive: 0.000845.

CUCAAACUCUGGAACCUGATT against USP18: the median seed-adjusted z-score is inactive: -0.326.

Consider GGACCAAGCCCUAAAGGAATT against 4-Sep, for which the median seed-adjusted z-score was inactive: -0.0124.

For GGAUGUCGCAUCAAUAAUATT against CNGB3, the median seed-adjusted z-score was inactive: 0.226.

CCAAUCUCCUGAAACAUCATT against ZFP41: the median seed-adjusted z-score was inactive: 0.

Regarding GAAGCAGUGCCAAUGAACATT against TCEB2, the median seed-adjusted z-score was active: 1.28.

Regarding CCUAGUCUCUCGUAUCCCATT against ENPP6, the median seed-adjusted z-score was inactive: -0.548.

CUACCAGUCUGCUUAGUUUTT against ALG6: the median seed-adjusted z-score was inactive: 0.106.

As for GUCUCUUAAAGUUCGAGAATT against KIF13A, the median seed-adjusted z-score is inactive: 0.

Turning to CACCGGCCUUUAUUCCACATT against DNPEP, the median seed-adjusted z-score is inactive: -0.293.

With GGAUCUCAUAGACCGAGGATT against ATE1, the median seed-adjusted z-score is inactive: 0.569.

In the case of GGAUGCUACAUUGAUUUUUTT against FKBP7, the median seed-adjusted z-score was inactive: -0.053.
